Results: patent US5916908A, “Pharmaceutical pyrazole compositions useful as inhibitors of protein kinases” (COR Therapeutics, Inc., priority 1995, dated 1999)

Tested on: HR5-βR cells
Assay: inhibition of cell proliferation under normal tissue culture conditions, HR5-βR

CN[C@@H]1C[C@H]2O[C@@](C)([C@@H]1OC)n1c3ccccc3c3c4c(c5c6ccccc6n2c5c31)C(=O)NC4 [Staurosporin]
HR5-βR growth inhibition compared with inhibition of PDGFR phosphorylation: lower concentrations than those required to inhibit PDGFR phosphorylation
